Measurements reported in patent publication US10383977B2, “Cardiovascular prostheses” (CorMatrix Cardiovascular, Inc., priority 2011, dated 2019).
At least one compound was matched to its structure with a doubt left.

Tests used:
CCR2 = assay: In vitro assay, TNF-α stimulated CCR2 expression in THP-1 cells (quantitative PCR); format: cell-based, human; details: THP-1 cells treated with TNF-α
Text: In the following study, the activity of cerivastatin and other statins, including simvastatin, lovastatin and atorvastatin, was similarly assessed using the human monocytic cell line THP-1. The THP-1 cells were similarly seeded by preparing a solution of THP-1 cells at 6×10^5 cells/ml and loading the solution of THP-1 cells onto a cell culture plate. The in vitro assay included six (6) treatment groups, including one (1) control group consisting of untreated THP-1 cells, one (1) positive control group consisting of THP-1 cells treated with tumor necrosis factor alpha (TNF-α) alone, four (4) treatment groups consisting of THP-1 cells treated with TNF-α and cerivastatin, TNF-α and simvastatin, TNF-α and lovastatin and TNF-α and atorvastatin. In this study, the THP-1 cells were treated with TNF-α to stimulate the production of CCR2. Each of the six (6) THP-1 cell samples were harvested and collected in a sealable vial and centrifuged to separate the liquid media from the THP-1 cells. The THP-1 cells were then collected and used for RNA extraction and quantitative PCR.

MCP-1 = assay: In vitro assay, LPS induced MCP-1 mRNA in THP-1 cells (quantitative PCR); format: cell-based, human; details: 200 ng/ml LPS, 0.1, 0.5, 1, 5 μM cerivastatin

SMILES: CCC(C)(C)C(=O)O[C@H]1C[C@@H](C)C=C2C=C[C@H](C)[C@H](CC[C@@H]3C[C@@H](O)CC(=O)O3)[C@H]21 [Simvastatin, simvastatin]
- expression of CCR2 (CCR2): did not, however, restrict CCR2 expression at levels comparable to cerivastatin

SMILES: COCc1c(C(C)C)nc(C(C)C)c(/C=C/[C@@H](O)C[C@@H](O)CC(=O)O)c1-c1ccc(F)cc1 [cerivastatin, (3R,5S,6E)-7-[4-(4-fluorophenyl)-5-(methoxymethyl)-2,6-bis(propan-2-yl)py-ridin-3-yl]-3,5-dihydroxyhept-6-enoic acid]
- expression of MCP-1 mRNA (MCP-1): inhibited by cerivastatin in a concentration-dependent manner
- expression of CCR2 (CCR2): capable of substantially restricting expression of CCR2
